For at least one compound, name, drawing or mass did not settle the structure.
Legend:
[1] = molecular target: T1, α1b (hamster receptor expressed in mouse fibroblasts) (Mesocricetus auratus, UniProt P18841); experiment: Radioligand binding with [3H]-prazosin, α1b
T1 construct: expressed in transfected cells; host or cells: mouse fibroblasts
T1 sequence (P18841 1-515): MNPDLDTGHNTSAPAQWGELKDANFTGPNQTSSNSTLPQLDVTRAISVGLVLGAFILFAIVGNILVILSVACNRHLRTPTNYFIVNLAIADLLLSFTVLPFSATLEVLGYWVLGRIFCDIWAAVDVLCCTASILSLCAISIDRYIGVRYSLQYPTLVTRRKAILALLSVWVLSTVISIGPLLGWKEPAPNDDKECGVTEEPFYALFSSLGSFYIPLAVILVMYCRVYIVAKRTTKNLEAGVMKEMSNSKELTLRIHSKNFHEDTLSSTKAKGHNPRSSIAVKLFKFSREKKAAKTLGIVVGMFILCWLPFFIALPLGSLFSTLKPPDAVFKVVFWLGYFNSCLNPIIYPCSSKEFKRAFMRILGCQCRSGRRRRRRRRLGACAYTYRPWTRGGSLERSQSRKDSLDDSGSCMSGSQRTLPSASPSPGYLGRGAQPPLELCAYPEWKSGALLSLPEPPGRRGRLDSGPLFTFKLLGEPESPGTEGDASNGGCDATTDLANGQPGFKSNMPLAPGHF
Protocol: (§1) For purposes of discussing α1 adrenoceptor subtypes, the IUPHAR convention of using lower case letters to define molecular clones and upper case letters to indicate pharmacologically defined adrenoceptors has been followed. Compounds of formula I were evaluated in radioligand binding assays specific for α1A (rat submaxillary gland), α1b (hamster receptor expressed in mouse fibroblasts) and α1d (rat receptor expressed in mouse fibroblasts) using [^3H]-prazosin as the radioligand as described in Knepper, et al. J. Pharm.

[2] = molecular target: T2, α1d (rat receptor expressed in mouse fibroblasts) (Rattus norvegicus, UniProt P23944); experiment: Radioligand binding with [3H]-prazosin, α1d
T2 construct: expressed in transfected cells; host or cells: mouse fibroblasts
T2 sequence (P23944 1-561): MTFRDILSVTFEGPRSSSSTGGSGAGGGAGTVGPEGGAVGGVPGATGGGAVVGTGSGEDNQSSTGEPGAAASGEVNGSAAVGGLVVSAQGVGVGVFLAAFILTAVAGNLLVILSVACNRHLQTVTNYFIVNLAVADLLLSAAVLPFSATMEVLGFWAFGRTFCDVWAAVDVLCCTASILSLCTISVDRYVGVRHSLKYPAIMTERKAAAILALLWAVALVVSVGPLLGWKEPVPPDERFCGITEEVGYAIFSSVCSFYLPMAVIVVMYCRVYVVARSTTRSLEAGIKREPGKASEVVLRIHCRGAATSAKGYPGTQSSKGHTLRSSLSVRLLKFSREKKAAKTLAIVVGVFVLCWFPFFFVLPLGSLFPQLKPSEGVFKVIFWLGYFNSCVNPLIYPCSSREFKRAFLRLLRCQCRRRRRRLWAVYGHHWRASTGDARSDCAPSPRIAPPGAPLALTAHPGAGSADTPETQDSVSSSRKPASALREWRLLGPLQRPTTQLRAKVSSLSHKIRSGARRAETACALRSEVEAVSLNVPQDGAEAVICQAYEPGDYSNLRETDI
Protocol: as §1

Compound | Ki [1] [µM] | Ki [2] [µM]
O=C(O)C=CC(=O)O.O=S(=O)(Nc1cccc2c1CCCC2c1c[nH]cn1)C1CC1 (stereo not drawn) [Example 27, N-[5,6,7,8-tetrahydro-(1H-imidazol-4-yl)-1-naphthalenyl]cyclopropanesulfonamide, maleate] | ≥ 10 | 
CCS(=O)(=O)Nc1ccc(OC)c2c1CCCC2c1c[nH]cn1.O=C(O)C=CC(=O)O (stereo not drawn) [Example 25, maleate] | ≥ 10 | ≥ 10
